Taken from: PubChem BioAssay AID1259276 (Sanger Institute, 2017)
Purpose: 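Kinase knock-downs that reduce colorectal cancer cell viability alone or with anchor drugs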 (primary screen). Cells: human C2BBe1 colorectal cancer cells. Reagent: siRNA pool against human genes. Treatment: DMSO vehicle, or one anchor drug: BYL719 at 1 µM, cetuximab at 5 µg/ml, or trametinib at 10 nM; exposure length not stated. Measurement: 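Cell viability as a fraction of non-targeting control wells, mean of replicates, also as a control-based robust z-score, plus a synergy score for each anchor drug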. Scale: viability robust z-score, siRNA alone and viability vs control, siRNA alone: higher = more viable cells after knock-down; synergy score with BYL719: higher = stronger combined killing with BYL719; synergy score with cetuximab: higher = stronger combined killing with cetuximab; synergy score with trametinib: higher = stronger combined killing with trametinib. Call rule: 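Called essential when knock-down alone gives a viability robust z-score below -3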. Meaning of the calls: active = essential (siRNA alone); inactive = no change (siRNA alone).
In all, the deposit lists 794 reagents; this is a part drawn at random. 24 of them (3%) count as active. 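Calls come only from the siRNA-alone arm; drug synergy scores do not affect them.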 Unmarked entries are inactive. Viability is capped at 1. Not stated in the record: the amount of reagent, the time to read-out.

| Gene | PubChem SID | viability robust z-score, siRNA alone | viability vs control, siRNA alone | synergy score with BYL719 | synergy score with cetuximab | synergy score with trametinib |
| --- | --- | --- | --- | --- | --- | --- |
| CKS1B | SID56478807 | 0.472 | 1 | -0.142 | 0.196 | -0.0667 |
| MAPK12 | SID152156302 | 0.472 | 1 | 0.16 | 0.153 | -0.0667 |
| LIMK1 | SID135621436 | 0.472 | 1 | -0.142 | -0.0115 | -0.0667 |
| PTK2B | SID56478543 | 0.472 | 1 | -0.109 | 0.214 | 0.0758 |
| DCK | SID56479088 | 0.472 | 1 | 0.0263 | -0.0115 | -0.0304 |
| ALPK1 | SID152152286 | 0.273 | 0.987 | 0.0448 | 0.0433 | -0.0784 |
| TGFBR3 | SID152150530 | 0.472 | 1 | -0.0916 | -0.0115 | -0.0667 |
| FXN | SID56479078 | 0.472 | 1 | 0.235 | 0.192 | -0.0667 |
| ULK2 | SID56479062 | 0.472 | 1 | -0.0239 | 0.102 | 0.175 |
| EPHB6 | SID152155826 | 0.472 | 1 | 0.0115 | -0.0115 | -0.0667 |
| ERBB3 | SID135620617 | 0.472 | 1 | 0.17 | -0.0115 | 0.00543 |
| SOX9 | SID134325081 | 0.472 | 1 | -0.142 | -0.0115 | 0.0419 |
| IGF2R | SID152150296 | 0.472 | 1 | 0.203 | -0.0115 | -0.0667 |
| MAP3K4 | SID152151893 | 0.472 | 1 | -0.0606 | 0.158 | -0.0667 |
| AK2 | SID56479162 | 0.472 | 1 | 0.221 | 0.0157 | -0.0667 |
| CDADC1 | SID56479191 | 0.15 | 0.98 | -0.159 | 0.0374 | -0.0857 |
| SLK | SID56478731 | 0.472 | 1 | -0.0752 | -0.0115 | -0.0667 |
| CDK15 | SID56478852 | 0.472 | 1 | 0.0135 | -0.0115 | -0.0667 |
| TSSK1B | SID56478967 | 0.472 | 1 | -0.0541 | -0.0115 | -0.0667 |
| MAP3K14 | SID135620705 | 0.472 | 1 | -0.00165 | 0.109 | -0.0667 |
| NPR2 | SID152151652 | 0.472 | 1 | -0.142 | 0.557 | -0.0667 |
| JAK3 | SID56478525 | 0.472 | 1 | -0.1 | -0.0115 | -0.0667 |
| CHD4 | SID152156048 | 0.472 | 1 | 0.191 | -0.0115 | -0.0667 |
| STK10 | SID56478780 | -0.396 | 0.945 | -0.0464 | -0.0656 | -0.085 |
| IKBKB | SID152150353 | 0.472 | 1 | -0.0227 | 0.0978 | 0.217 |
| PHKB | SID134312707 | 0.472 | 1 | -0.0084 | -0.0115 | 0.00604 |
| PANK3 | SID56479122 | 0.472 | 1 | -0.0388 | -0.0115 | -0.0667 |
| MAP3K6 | SID56478746 | 0.472 | 1 | -0.142 | -0.0115 | -0.0667 |
| PIP5K1C | SID134310630 | 0.472 | 1 | 0.122 | -0.0115 | 0.071 |
| EPHA5 | SID152153658 | -1.16 | 0.897 | -0.196 | -0.113 | 0.0889 |
| PFKFB4 | SID152152940 | 0.472 | 1 | -0.0476 | -0.0115 | -0.0667 |
| COASY | SID56479117 | -2.27 | 0.827 | 0.119 | 0.0622 | 0.0848 |
| VRK3 | SID135620981 | -3.21 (active) | 0.768 | -0.126 | -0.241 | -0.113 |
| MAPK1 | SID152148532 | 0.472 | 1 | 0.172 | 0.0189 | 0.00362 |

A few values from the list:
Entry of CDK15 [SID56478852] under “synergy score with cetuximab”: -0.0115
DCK [SID56479088], viability vs control, siRNA alone = 1
PANK3 [SID56479122], synergy score with cetuximab = -0.0115
